Results are given in words; binding and its absence hold for the method and conditions named. A result given as binding can be weak or reduced; the word gives no strength.
Target: GST-TLR3 (recombinant GST-tagged TrichomeLess Regulator 3) (Artemisia annua)
Experiment: pull-down; GST pull-down; GST-tagged and His-tagged proteins incubated at 4 °C for 3 h in 300 mM NaCl, 20 mM Tris-HCl, 1% Triton X-100, protease inhibitor cocktail; SDS-PAGE, immunoblot with anti-His and anti-GST; both purified

The chains behind the UniProt entries cited, without tags or fusion partners. Where a name states a change or a piece, a line headed by the entry shows the natural chain unless it says otherwise.
UniProt A0A2U1NGE6: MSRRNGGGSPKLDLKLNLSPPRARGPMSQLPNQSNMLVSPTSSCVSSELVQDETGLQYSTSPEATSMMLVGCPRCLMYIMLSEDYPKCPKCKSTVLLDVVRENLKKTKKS
UniProt A0A2U1N775: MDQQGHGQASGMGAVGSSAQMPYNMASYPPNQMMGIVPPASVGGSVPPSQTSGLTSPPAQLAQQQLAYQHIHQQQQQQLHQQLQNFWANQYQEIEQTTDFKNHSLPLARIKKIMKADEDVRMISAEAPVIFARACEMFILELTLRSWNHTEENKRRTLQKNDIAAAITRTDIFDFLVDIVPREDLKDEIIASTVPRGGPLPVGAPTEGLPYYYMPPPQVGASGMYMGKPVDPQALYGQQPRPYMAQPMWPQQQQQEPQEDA

With “His-CycTL (recombinant His-tagged cyclin trichomeless) (from UniProt A0A2U1NGE6)” the binding was “binds”.

In the case of “His-NFY1 (recombinant His-tagged NFY1) (from UniProt A0A2U1N775)”, the binding is reported as “binds”.
